This test has as its target full length GFP-CD2AP (PAWS1-/- U2OS, Figure 4E) (not stated (CD2AP and xCD2AP plasmids listed)) (UniProt Q9Y5K6). The test is described as follows: co-IP.

Chains of the proteins cited; added tags and fusions are not shown. Lines headed by an entry give the natural chain unless they say otherwise; changes in a name come on top.
UniProt Q9Y5K6: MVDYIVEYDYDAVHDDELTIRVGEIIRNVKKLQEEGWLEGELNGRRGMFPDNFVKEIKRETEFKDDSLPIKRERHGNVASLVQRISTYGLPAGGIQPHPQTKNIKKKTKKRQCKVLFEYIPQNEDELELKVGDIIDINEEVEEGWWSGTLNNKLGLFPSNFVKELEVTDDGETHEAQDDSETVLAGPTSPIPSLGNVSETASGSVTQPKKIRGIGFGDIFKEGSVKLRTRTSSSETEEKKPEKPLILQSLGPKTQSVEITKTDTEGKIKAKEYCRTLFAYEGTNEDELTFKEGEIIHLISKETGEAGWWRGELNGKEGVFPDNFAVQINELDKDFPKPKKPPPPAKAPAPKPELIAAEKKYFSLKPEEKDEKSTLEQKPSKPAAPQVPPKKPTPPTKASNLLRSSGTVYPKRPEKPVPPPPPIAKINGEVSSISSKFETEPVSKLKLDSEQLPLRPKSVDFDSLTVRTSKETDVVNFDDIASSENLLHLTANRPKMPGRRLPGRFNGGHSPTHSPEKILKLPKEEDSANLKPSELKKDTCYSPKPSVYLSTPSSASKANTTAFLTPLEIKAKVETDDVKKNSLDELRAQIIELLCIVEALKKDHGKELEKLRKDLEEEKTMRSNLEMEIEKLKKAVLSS
UniProt A6ND36: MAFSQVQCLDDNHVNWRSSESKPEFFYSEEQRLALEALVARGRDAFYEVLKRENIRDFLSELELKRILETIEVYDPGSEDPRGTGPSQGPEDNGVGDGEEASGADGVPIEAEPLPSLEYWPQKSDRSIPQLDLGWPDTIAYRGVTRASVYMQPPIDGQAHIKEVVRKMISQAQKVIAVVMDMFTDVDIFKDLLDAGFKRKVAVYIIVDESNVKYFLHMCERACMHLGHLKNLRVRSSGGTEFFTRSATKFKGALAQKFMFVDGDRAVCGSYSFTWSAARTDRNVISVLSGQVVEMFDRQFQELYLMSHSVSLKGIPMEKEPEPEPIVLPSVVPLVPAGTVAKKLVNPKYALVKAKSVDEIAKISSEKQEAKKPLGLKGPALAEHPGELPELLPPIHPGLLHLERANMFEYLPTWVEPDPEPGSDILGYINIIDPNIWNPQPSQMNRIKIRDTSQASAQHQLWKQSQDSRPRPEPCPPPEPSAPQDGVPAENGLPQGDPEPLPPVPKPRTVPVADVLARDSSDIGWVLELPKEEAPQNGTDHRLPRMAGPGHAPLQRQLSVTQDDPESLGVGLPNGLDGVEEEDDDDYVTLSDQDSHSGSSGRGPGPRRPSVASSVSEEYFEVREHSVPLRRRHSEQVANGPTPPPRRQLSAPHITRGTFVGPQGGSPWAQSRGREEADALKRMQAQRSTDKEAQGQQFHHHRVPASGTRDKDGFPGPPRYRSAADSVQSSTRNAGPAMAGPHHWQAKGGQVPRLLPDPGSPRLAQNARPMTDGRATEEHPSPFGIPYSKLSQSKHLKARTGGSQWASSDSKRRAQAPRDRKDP

These are yes or no findings as the source states them, for the method shown. In cells and extracts the contact can be indirect. A result given as binding can be weak or reduced; the word gives no strength.

For the substance “Myc-PAWS1 DUF1669 domain (1-294) (from UniProt A6ND36) (domain or fragment)”, the binding result is “binds”.

The values are drawn from publication doi:10.1101/106971.
